From paper PMC3192838
Results are given in words; binding and its absence hold for the method and conditions named. Binding seen in cells or lysates may run through a third protein.

Tests used:
[1] = target: T1, PKR, dsRNA-dependent eIF2α kinase (human (endogenous in Huh7.25.CD81)), P19525; test: co-IP; immunoprecipitation of endogenous PKR from extracts (3.5 mg) of JFH1-infected Huh7.25.CD81 cells at 1, 2, 4 and 6 hrs post-infection, with the RNAse inhibitor RNAsin (1000 U/ml) at all steps; immunoblot (Odyssey); conditions: remark: other sources report otherwise
T1 chain: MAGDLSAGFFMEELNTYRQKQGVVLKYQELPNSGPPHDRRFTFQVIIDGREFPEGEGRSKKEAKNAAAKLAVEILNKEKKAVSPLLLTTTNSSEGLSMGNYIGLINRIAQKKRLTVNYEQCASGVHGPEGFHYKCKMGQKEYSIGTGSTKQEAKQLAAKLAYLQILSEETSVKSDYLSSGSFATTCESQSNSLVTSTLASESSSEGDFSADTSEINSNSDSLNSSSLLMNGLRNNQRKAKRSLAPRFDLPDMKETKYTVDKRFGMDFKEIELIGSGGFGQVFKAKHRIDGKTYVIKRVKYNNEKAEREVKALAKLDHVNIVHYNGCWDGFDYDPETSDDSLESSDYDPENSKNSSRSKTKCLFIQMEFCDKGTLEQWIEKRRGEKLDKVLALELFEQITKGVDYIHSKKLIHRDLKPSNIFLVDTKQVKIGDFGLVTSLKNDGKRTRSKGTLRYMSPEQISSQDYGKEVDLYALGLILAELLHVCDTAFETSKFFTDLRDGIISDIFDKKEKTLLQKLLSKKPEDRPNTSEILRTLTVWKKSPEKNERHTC

[2] = target: T1, PKR, dsRNA-dependent eIF2α kinase …; test: co-IP; immunoprecipitation of endogenous PKR from extracts (3.5 mg) of Huh7.25.CD81 cells infected with JFH1 (m.o.i = 0.2), alone or in presence of C16; lysis buffer 50 mM TRIS-HCl pH 7.5, 140 mM NaCl, 5% glycerol, 1% CHAPS; antibody at 4°C overnight, A/G-agarose beads; immunoblot (Odyssey); conditions: remark: other sources report otherwise

B1: RIG-I, CARD-containing DexD/H RNA helicase, O95786-1 1-925 (protein)
chain: MTTEQRRSLQAFQDYIRKTLDPTYILSYMAPWFREEEVQYIQAEKNNKGPMEAATLFLKFLLELQEEGWFRGFLDALDHAGYSGLYEAIESWDFKKIEKLEEYRLLLKRLQPEFKTRIIPTDIISDLSECLINQECEEILQICSTKGMMAGAEKLVECLLRSDKENWPKTLKLALEKERNKFSELWIVEKGIKDVETEDLEDKMETSDIQIFYQEDPECQNLSENSCPPSEVSDTNLYSPFKPRNYQLELALPAMKGKNTIICAPTGCGKTFVSLLICEHHLKKFPQGQKGKVVFFANQIPVYEQQKSVFSKYFERHGYRVTGISGATAENVPVEQIVENNDIIILTPQILVNNLKKGTIPSLSIFTLMIFDECHNTSKQHPYNMIMFNYLDQKLGGSSGPLPQVIGLTASVGVGDAKNTDEALDYICKLCASLDASVIATVKHNLEELEQVVYKPQKFFRKVESRISDKFKYIIAQLMRDTESLAKRICKDLENLSQIQNREFGTQKYEQWIVTVQKACMVFQMPDKDEESRICKALFLYTSHLRKYNDALIISEHARMKDALDYLKDFFSNVRAAGFDEIEQDLTQRFEEKLQELESVSRDPSNENPKLEDLCFILQEEYHLNPETITILFVKTRALVDALKNWIEGNPKLSFLKPGILTGRGKTNQNTGMTLPAQKCILDAFKASGDHNILIATSVADEGIDIAQCNLVILYEYVGNVIKMIQTRGRGRARGSKCFLLTSNAGVIEKEQINMYKEKMMNDSILRLQTWDEAVFREKILHIQTHEKFIRDSQEKPKPVPDKENKKLLCRKCKALACYTADVRVIEECHYTVLGDAFKECFVSRPHPKPKQFSSFEKRAKIFCARQNCSHDWGIHVKYKTFEIPVIKIESFVVEDIATGVQTLYSKWKDFHFEKIPFDPAEMSK
In the case of B1, the binding [1] is reported as “no binding” and the binding [2] is reported as “no binding”.
